Measured values published in US20150050301A1, “Contiguous Overlapping Peptides for Treatment of House Dust Mites Allergy” (ANERGIS S.A., priority 2013, published 2015).
Part of at least one peptide drawing is inferred or uncertain, most often the ends. Some entries repeat one wording, which the source may state once for all of them. Residues, ends and D or L forms follow the SMILES beside them. No end group written: not given here.

Tested on: RBL-703/21 cells transfected with human Fc epsilon RI receptor, sensitized with sera from patients with house dust mite allergy
Assay: RBL degranulation
Format: cell-based
Details: RBL cells pre-incubated with human serums
Description: Degranulation assay was performed as described in [37]. RBL-703/21 cells transfected with human Fc epsilon RI receptor were plated in 96-well tissue culture plates (10^5 cells/well) overnight. Passive sensitization of RBL-703/21 cells was carried out with sera from patients with house dust mite allergy at 1:20 overnight. Unbound antibodies were removed by washing the cell layer twice in Hanks' balanced salt solution (Gibco, Life technologies) the next day. Degranulation of RBL cells was induced for 1 h at 37° C. by adding nDer p1, nDer p 2 or individual COPs and mixes at indicated concentrations diluted in Tyrode's buffer (130 mM NaCl, 5 mM KCl, 1.4 mM CaCl2, 1 mM MgCl2, 5.6 mM glucose, 10 mM HEPES pH7.4, 0.1% BSA). β-hexosaminidase activity was analyzed by incubating 30 μl of cell supernatant with 50 μl of 1.3 mg/ml 4-Nitrophenyl N-acetyl-β-D-glucosaminide (Sigma) in citrate buffer (0.1M, pH 4.5) for 1 h at 37° C. The reaction was stopped by addition of 100 μl glycine buffer (0.2M glycine, 0.2M NaCl, pH 10.7) and optical densities (OD) were measured at 405 nm.

“SIDGLEVDVPGIDPNACHYMKCPLVKGQQYDIKYTWNVPKIAPKSENVVVTVKVLGD (cysteines drawn unpaired) [AllerDM2.10]” was tested, and the “basophil degranulation in RBL assay” value was “not able to trigger basophil degranulation”.
In the case of `CC[C@H](C)[C@H](NC(=O)[C@H](CCC(=O)O)NC(=O)[C@H](Cc1c[nH]cn1)NC(=O)[C@H](CC(N)=O)NC(=O)[C@H](C)NC(=O)[C@H](CS)NC(=O)[C@H](CC(=O)O)NC(=O)[C@H](CCCCN)NC(=O)[C@@H](NC(=O)[C@H](CC(=O)O)NC(=O)[C@@H](NC(=O)[C@H](CCC(N)=O)NC(=O)[C@@H](N)CC(=O)O)C(C)C)C(C)C)C(=O)N[C@@H](CCCCN)C(=O)N[C@@H](CCCCN)C(=O)N[C@H](C(=O)N[C@@H](CC(C)C)C(=O)N[C@H](C(=O)N1CCC[C@H]1C(=O)NCC(=O)N[C@@H](CS)C(=O)N[C@@H](Cc1c[nH]cn1)C(=O)NCC(=O)N[C@@H](CO)C(=O)N[C@@H](CCC(=O)O)C(=O)O)C(C)C)C(C)C` [AllerDM2.3] (H-DQVDVKDCANHEIKKVLVPGCHGSE-OH; N-terminus and C-terminus assumed), the “basophil degranulation in RBL assay” value was “not able to trigger basophil degranulation”.
For KVLGDNGVLACAIATHAKIRD [AllerDM2.9], the “basophil degranulation in RBL assay” value was “not able to trigger basophil degranulation”.
In the case of “HYMKCPLVKGQQYDIKYTWNVPKIAPKSENVVVTVKVLGDNGVLACAIATHAKIRD (cysteines drawn unpaired) [AllerDM2.5]”, the “basophil degranulation in RBL assay” value was “each individual peptide did not”.
